{
  "sequences": {"note": "Chains of the proteins cited; added tags and fusions are not shown. Lines headed by an entry give the natural chain unless they say otherwise; changes in a name come on top.", "UniProt P38634": "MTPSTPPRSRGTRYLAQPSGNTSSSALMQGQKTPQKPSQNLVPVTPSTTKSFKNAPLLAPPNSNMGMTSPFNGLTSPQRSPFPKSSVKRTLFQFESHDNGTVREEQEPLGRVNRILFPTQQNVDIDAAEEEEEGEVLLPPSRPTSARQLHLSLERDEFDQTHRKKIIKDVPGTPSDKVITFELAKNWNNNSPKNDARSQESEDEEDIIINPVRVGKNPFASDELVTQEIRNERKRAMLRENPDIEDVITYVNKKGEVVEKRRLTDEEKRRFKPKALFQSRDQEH"},
  "source": "patent US20040072319A1",
  "about": "“Molecules that modulate ubiquintin-dependent proteolysis and methods for identifying same” (priority 2003, published 2004)",
  "biological_target": "T1, Cdc4 (yeast F-box protein, recombinant, expressed in baculovirus-infected insect cells) (yeast) (UniProt P07834)",
  "T1 sequence (looked up)": "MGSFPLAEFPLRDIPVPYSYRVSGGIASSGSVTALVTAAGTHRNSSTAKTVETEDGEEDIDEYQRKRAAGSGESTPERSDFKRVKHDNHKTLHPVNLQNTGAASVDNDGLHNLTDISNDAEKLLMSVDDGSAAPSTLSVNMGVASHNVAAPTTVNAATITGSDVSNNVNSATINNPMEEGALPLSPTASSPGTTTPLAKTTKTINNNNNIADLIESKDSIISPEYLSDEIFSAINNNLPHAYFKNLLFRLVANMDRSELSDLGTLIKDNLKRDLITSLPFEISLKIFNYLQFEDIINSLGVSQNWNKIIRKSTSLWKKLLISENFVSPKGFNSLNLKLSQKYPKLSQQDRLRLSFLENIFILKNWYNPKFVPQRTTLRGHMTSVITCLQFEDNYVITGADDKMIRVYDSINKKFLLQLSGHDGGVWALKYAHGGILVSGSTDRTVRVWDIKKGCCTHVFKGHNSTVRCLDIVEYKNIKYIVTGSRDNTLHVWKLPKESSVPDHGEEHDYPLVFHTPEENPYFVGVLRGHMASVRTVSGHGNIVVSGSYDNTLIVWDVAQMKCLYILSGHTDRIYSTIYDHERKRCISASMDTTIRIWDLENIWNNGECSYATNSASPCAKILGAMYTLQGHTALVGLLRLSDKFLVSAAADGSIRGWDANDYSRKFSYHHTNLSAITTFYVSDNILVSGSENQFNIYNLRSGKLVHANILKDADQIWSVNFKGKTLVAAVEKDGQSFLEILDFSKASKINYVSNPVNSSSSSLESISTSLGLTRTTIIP",
  "assay": "capture of phosphorylated Gst-Sic1 on Cdc4^FLAG resin, anti-Sic1 blot",
  "note": "These are yes or no findings as the source states them, for the method shown. Some binding calls cover weakened binding; strength is not graded here.",
  "data": [
    {"substance": "Sic1 4m (Sic1^9m with T2, T5, T33, T45 and S76 restored), Gst fusion (from UniProt P38634 1-284)", "values": [
      {"measurement": "binding", "value": "binds"}
    ]}
  ]
}
